Sequences and labels used below:
B1: TRAP1 (protein, UniProt Q12931 60-704)
chain: STQTAEDKEEPLHSIISSTESVQGSTSKHEFQAETKKLLDIVARSLYSEKEVFIRELISNASDALEKLRHKLVSDGQALPEMEIHLQTNAEKGTITIQDTGIGMTQEELVSNLGTIARSGSKAFLDALQNQAEASSKIIGQFGVGFYSAFMVADRVEVYSRSAAPGSLGYQWLSDGSGVFEIAEASGVRTGTKIIIHLKSDCKEFSSEARVRDVVTKYSNFVSFPLYLNGRRMNTLQAIWMMDPKDVREWQHEEFYRYVAQAHDKPRYTLHYKTDAPLNIRSIFYVPDMKPSMFDVSRELGSSVALYSRKVLIQTKATDILPKWLRFIRGVVDSEDIPLNLSRELLQESALIRKLRDVLQQRLIKFFIDQSKKDAEKYAKFFEDYGLFMREGIVTATEQEVKEDIAKLLRYESSALPSGQLTSLSEYASRMRAGTRNIYYLCAPNRHLAEHSPYYEAMKKKDTEVLFCFEQFDELTLLHLREFDKKKLISVETDIVVDHYKEEKFEDRSPAAECLSEKETEELMAWMRNVLGSRVTNVKVTLRLDTHPAMVTVLEMGAARHFLRMQQLAKTQEERAQLLQPTLEINPRHALIKKLNQLRASEPGLAQLLVDQIYENAMIAAGLVDDPRAMVGRLNELLVKALERH

Sequences of proteins named here, by UniProt entry; tags and fusion partners are left off.
UniProt P62491: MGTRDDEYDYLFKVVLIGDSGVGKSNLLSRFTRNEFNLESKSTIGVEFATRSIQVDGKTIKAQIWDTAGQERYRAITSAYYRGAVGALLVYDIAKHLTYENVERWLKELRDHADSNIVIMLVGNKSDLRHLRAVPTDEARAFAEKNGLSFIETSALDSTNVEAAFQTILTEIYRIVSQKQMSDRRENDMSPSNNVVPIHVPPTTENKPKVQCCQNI
UniProt P54652: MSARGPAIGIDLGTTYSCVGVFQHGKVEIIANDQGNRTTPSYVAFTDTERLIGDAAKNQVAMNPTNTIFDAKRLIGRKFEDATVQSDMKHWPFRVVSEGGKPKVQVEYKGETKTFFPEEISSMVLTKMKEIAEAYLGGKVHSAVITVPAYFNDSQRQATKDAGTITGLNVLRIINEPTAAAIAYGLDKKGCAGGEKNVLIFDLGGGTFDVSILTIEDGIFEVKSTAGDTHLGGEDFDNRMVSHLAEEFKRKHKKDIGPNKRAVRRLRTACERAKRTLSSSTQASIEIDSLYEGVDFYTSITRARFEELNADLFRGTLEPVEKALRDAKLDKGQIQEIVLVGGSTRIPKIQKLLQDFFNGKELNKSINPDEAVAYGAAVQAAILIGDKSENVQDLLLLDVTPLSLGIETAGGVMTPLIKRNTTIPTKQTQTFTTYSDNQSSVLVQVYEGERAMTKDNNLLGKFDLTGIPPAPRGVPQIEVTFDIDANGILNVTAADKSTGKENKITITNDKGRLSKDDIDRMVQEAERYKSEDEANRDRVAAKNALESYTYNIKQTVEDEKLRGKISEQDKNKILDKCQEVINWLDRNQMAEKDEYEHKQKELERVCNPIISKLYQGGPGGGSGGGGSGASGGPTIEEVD
UniProt P11142: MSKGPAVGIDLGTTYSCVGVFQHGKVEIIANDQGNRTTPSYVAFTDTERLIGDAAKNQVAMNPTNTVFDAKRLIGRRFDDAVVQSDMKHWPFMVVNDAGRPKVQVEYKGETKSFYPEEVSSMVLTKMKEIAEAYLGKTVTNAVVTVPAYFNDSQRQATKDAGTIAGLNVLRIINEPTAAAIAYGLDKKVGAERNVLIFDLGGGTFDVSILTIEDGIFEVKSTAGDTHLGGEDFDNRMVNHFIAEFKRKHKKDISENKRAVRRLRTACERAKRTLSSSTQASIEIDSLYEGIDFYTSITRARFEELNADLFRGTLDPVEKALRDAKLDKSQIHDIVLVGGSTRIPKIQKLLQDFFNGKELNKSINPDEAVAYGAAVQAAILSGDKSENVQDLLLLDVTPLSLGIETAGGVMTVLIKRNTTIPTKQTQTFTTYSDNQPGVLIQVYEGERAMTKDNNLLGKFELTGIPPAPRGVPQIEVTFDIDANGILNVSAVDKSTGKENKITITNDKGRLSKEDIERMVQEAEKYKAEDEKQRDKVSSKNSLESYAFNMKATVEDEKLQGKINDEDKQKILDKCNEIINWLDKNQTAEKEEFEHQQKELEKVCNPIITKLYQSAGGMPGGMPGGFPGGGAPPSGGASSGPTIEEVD

These are yes or no findings as the source states them, for the method shown. In cells and extracts the contact can be indirect. Here binding means that the protein was enriched with, or labelled near, the bait; the list need not be complete.

This test concerns the target RAB11A (human (endogenous in SH-SY5Y)) (UniProt P62491). The test is described as follows: affinity purification with mass spectrometry; Co-IP with anti-RAB11A from lysates of EV-A71 S41-infected (MOI 0.1, 24 h.p.i.) and uninfected SH-SY5Y cells; elution in Laemmli buffer at 70 °C; SDS-PAGE, in-gel trypsin digestion, LC-MS/MS (Q Exactive), Mascot; IgG isotype control subtracted.
HSPA2 (from UniProt P54652 1-639): the binding result is on record as “binds”.
Then HSPA8 (from UniProt P11142 1-646), with “binds”.
For B1, the binding entry is recorded as “binds”.
